# Structures can show the parent of a compound that is named as a salt. ± gives the standard deviation of the averaged measurements. The list shows a part of the results.
# Tested on: APPdp1-6 iPSC-derived neurons
# Test: pThr231Tau/total Tau ratio Z-score vs DMSO vehicle wells; higher = more pThr231Tau relative to total Tau
# Details: 5 µM; treatment time 5 days
row,SMILES,pThr231Tau/total Tau ratio Z-score
1,CC1(C)[C@@H](O)CC[C@]2(C)[C@H]3C(=O)C=C4[C@@H]5C[C@@](C)(C(=O)O)CC[C@]5(C)CC[C@@]4(C)[C@]3(C)CC[C@@H]12,0.329 ± 1.6
2,C[C@]12CCC(=O)C=C1C=C[C@@H]1[C@@H]2CC[C@@]2(C)[C@H]1CC[C@@]21CCC(=O)O1 [Prestw-1259],0.9 ± 0.53
3,NC(=O)OCC(O)COc1ccc(Cl)cc1 (centres undefined) [Prestw-234],-0.109 ± 1
4,CC1(C)S[C@@H]2[C@H](NC(=O)[C@H](N)c3ccccc3)C(=O)N2[C@H]1C(=O)OC1OC(=O)c2ccccc21 (some centres undefined) [Prestw-1010],0.364 ± 0.016
5,O=C(O)C(O)C(O)C(=O)O (centres undefined) [Tartaric acid],0.784 ± 0.8
6,CN1C(C(=O)Nc2ccccn2)=C(O)c2ccccc2S1(=O)=O [Prestw-211],-0.355 ± 1.8
7,COCCOC(=O)C1=C(C)NC(C)=C(C(=O)OC(C)C)C1c1cccc([N+](=O)[O-])c1 (centres undefined) [Prestw-918],0.0642 ± 0.27
8,NCCS,0.879 ± 1.2
9,COC(=O)CCc1ccc(OCC(O)CNC(C)C)cc1 (centres undefined) [Prestw-1137],1.19 ± 0.46
10,NCC(=O)CCC(=O)O [5-Aminolevulinic acid],0.678 ± 2
11,NC(=O)c1ccc[n+]([C@@H]2O[C@H](COP(=O)([O-])OP(=O)(O)OC[C@H]3O[C@@H](n4cnc5c(N)ncnc54)[C@H](O)[C@@H]3O)[C@@H](O)[C@H]2O)c1 [Prestw-741],-0.0357 ± 0.091
12,CNCCC=C1c2ccccc2C=Cc2ccccc21 [Prestw-513],-1.26 ± 0.31
13,COc1ccc(CN(CCN(C)C)c2ncccn2)cc1 [THONZYLAMINE HYDROCHLORIDE    Therap cat: antihistamine],0.693 ± 1.6
14,Cc1ccc(C)c(OCCCC(C)(C)C(=O)O)c1 [Prestw-214],-1.06 ± 0.91
15,O=C(CCCN1CCC(O)(c2ccc(Cl)cc2)CC1)c1ccc(F)cc1 [Prestw-115],-0.281 ± 0.33
16,CN(Cc1ccc(C(C)(C)C)cc1)Cc1cccc2ccccc12 [Prestw-1252],0.744 ± 0.4
17,CCCCCCCCNC(C)C(O)c1ccc(SC(C)C)cc1 (centres undefined) [Prestw-421],-2.94 ± 0.1
18,C[C@H]1O[C@@H](O[C@H]2[C@@H](O)C[C@H](O[C@H]3[C@@H](O)C[C@H](O[C@H]4CC[C@@]5(C)[C@H](CC[C@@H]6[C@@H]5CC[C@]5(C)[C@@H](C7=CC(=O)OC7)CC[C@]65O)C4)O[C@@H]3C)O[C@@H]2C)C[C@H](O)[C@@H]1O,-4.21 ± 0.55
19,CC(=O)CC(c1ccc([N+](=O)[O-])cc1)c1c(O)c2ccccc2oc1=O (centres undefined) [Prestw-110],1.12 ± 0.74
20,CC1(C)S[C@@H]2[C@H](NC(=O)COc3ccccc3)C(=O)N2[C@H]1C(=O)O [PENICILLIN V POTASSIUM    Therap cat: antibacterial],-1.1276 ± 0.0011
21,CCCC(=O)O[C@]1(C(=O)CO)CC[C@H]2[C@@H]3CCC4=CC(=O)CC[C@]4(C)[C@H]3[C@@H](O)C[C@@]21C,0.485 ± 0.96
22,COc1ccc2c3c1O[C@H]1C[C@@H](O)C=C[C@@]31CCN(C)C2 [Prestw-588],0.107 ± 0.57
23,O=c1[nH]c(=O)n([C@H]2C[C@H](O)[C@@H](CO)O2)cc1C(F)(F)F [Prestw-1056],0.775 ± 0.27
24,Cc1nnc(SCC2=C(C(=O)O)N3C(=O)[C@@H](NC(=O)Cn4cnnn4)[C@H]3SC2)s1 [Prestw-736],0.108 ± 0.009
25,CC(C)Cn1cnc2c(N)nc3ccccc3c21 [Prestw-1291],-0.259 ± 0.79

# At a glance, part of the list above.
row,SMILES,pThr231Tau/total Tau ratio Z-score
1,CC1(C)[C@@H](O)CC[C@]2(C)[C@H]3C(=O)C=C4[C@@H]5C[C@@](C)(C(=O)O)CC[C@]5(C)CC[C@@]4(C)[C@]3(C)CC[C@@H]12,0.329 ± 1.6
2,C[C@]12CCC(=O)C=C1C=C[C@@H]1[C@@H]2CC[C@@]2(C)[C@H]1CC[C@@]21CCC(=O)O1 [Prestw-1259],0.9 ± 0.53

# More records.

row,SMILES,pThr231Tau/total Tau ratio Z-score
1,CC(=O)OCC(=O)[C@@]1(O)[C@H](OC(C)=O)C[C@H]2[C@@H]3CCC4=CC(=O)C=C[C@]4(C)[C@@]3(F)[C@@H](O)C[C@@]21C [TRIAMCINOLONE DIACETATE    Therap cat: antiinflammation],2.97 ± 2.8
2,NC(=O)N1c2ccccc2CC(=O)c2ccccc21 [Prestw-1156],1.75 ± 2.8
3,Cc1cccc(Nc2ccncc2S(=O)(=O)NC(=O)NC(C)C)c1 [Prestw-1030],-0.641 ± 0.56
4,C[C@]12CC[C@H]3[C@@H](CCC4=CC(=O)CC[C@@]43C)[C@@H]1CC[C@@H]2C(=O)CO [Prestw-957],-0.764 ± 0.5
5,C=N[C@@H](C(=O)N[C@@H]1C(=O)N2[C@@H]1SC(C)(C)[C@@H]2C(=O)O)c1ccccc1 [METAMPICILLIN SODIUM    Therap cat: antimicrobial],0.98 ± 0.14
6,CC[N+](CC)(CC(=O)Nc1c(C)cccc1C)Cc1ccccc1 [Prestw-961],-0.173 ± 1.2
7,COc1cc(NS(=O)(=O)c2ccc(N)cc2)nc(OC)n1 [Prestw-728],-0.3 ± 0.91
8,CC1(C)O[C@@H]2[C@@H](CO[C@@]3(COS(N)(=O)=O)OC(C)(C)O[C@@H]23)O1 [Prestw-1493],1.09 ± 0.24
9,CC(CN1c2ccccc2Sc2ccccc21)N(C)C (centres undefined) [Prestw-888],0.37 ± 0.14
10,NS(=O)(=O)c1cc2c(cc1C(F)(F)F)NC(Cc1ccccc1)NS2(=O)=O (centres undefined) [Prestw-784],-0.7 ± 0.16
11,O[C@@H](c1cc(C(F)(F)F)nc2c(C(F)(F)F)cccc12)[C@H]1CCCCN1 [Prestw-126],-1.1 ± 0.7
12,O=C(CCCCCCCCCCCCC1CCCC1)Nc1ccc(S(=O)(=O)c2ccc(NC(=O)CCCCCCCCCCCCC3CCCC3)cc2)cc1,-0.113 ± 0.2
13,O=C(c1ccc(OCCN2CCCCC2)cc1)c1c(-c2ccc(O)cc2)sc2cc(O)ccc12 [Prestw-862],-1.65 ± 0.86
14,CCn1cc(C(=O)O)c(=O)c2cc(F)c(N3CCNCC3)cc21 [Prestw-221],1.41 ± 0.67
15,CC1(C)S[C@@H]2[C@H](N3C(=O)[C@@H](c4ccccc4)NC3(C)C)C(=O)N2[C@H]1C(=O)O [HETACILLIN POTASSIUM    Therap cat: antibacterial],0.547 ± 0.57
16,CCOC(=O)C1=C(C)NC(C)=C(C(=O)OC)C1c1cccc([N+](=O)[O-])c1 (centres undefined) [Prestw-916],-0.3 ± 0.8
17,CC1CCc2cc(F)cc3c(=O)c(C(=O)O)cn1c23 (centres undefined) [Prestw-204],-0.584 ± 0.73
18,O=C(NCC1CCCCN1)c1cc(OCC(F)(F)F)ccc1OCC(F)(F)F (centres undefined) [Prestw-735],-0.156 ± 0.71
19,CCCCOc1ccc(OCCCN2CCOCC2)cc1 [Prestw-716],-0.656 ± 1.7
20,CCCOc1ccc2nc(NC(=O)OC)[nH]c2c1 [Prestw-1460],-3.65 ± 0.82
21,COc1c(O)cc2c(c1O)[C@@H]1O[C@H](CO)[C@@H](O)[C@H](O)[C@H]1OC2=O [BERGENIN    ex Bergenia spp.    J Chem Soc 1958: 2231],0.819 ± 0.25
22,COc1ccccc1OCCNCC(O)COc1cccc2[nH]c3ccccc3c12 (centres undefined) [Prestw-1262],0.102 ± 0.98
23,"S=P(N1CC1)(N1CC1)N1CC1 [THIOTEPA    Therap cat: antineoplastic, alkylating agent]",2.16 ± 2.4
24,COc1cc(N)c(Cl)cc1C(=O)NC1CCN(Cc2ccccc2)CC1 [Prestw-380],-0.0531 ± 0.91
25,CCN1CCCC1CNC(=O)c1cc(S(=O)(=O)CC)c(N)cc1OC (centres undefined) [Prestw-1217],0.426 ± 0.31

row,SMILES,pThr231Tau/total Tau ratio Z-score
1,NC(N)=NCCN1CCCCCCC1 [Prestw-317],1.52 ± 0.73
2,Cc1c(OCC(F)(F)F)ccnc1C[S+]([O-])c1nc2ccccc2[nH]1 (centres undefined) [Prestw-1072],0.119 ± 0.83
3,Cn1c(=O)c2c(ncn2C)n(C)c1=O [Prestw-1256],0.703 ± 0.048
4,CC(C)(C)NCC(O)c1ccc(O)c(CO)c1 (centres undefined) [Prestw-198],-1.01 ± 0.69
5,COc1ccc2cc1Oc1ccc(cc1)C[C@H]1c3c(cc4c(c3Oc3cc5c(cc3OC)CCN(C)[C@@H]5C2)OCO4)CCN1C,-0.433 ± 1.2
6,"CCOC(=O)c1ccc(O)cc1 [ETHYL PARABEN, antifungal]",0.955 ± 1.2
7,"CCC(=O)NCC[C@@H]1CCc2ccc3c(c21)CCO3 [RAMELTEON, melatonin receptor agonist]",1.5 ± 0.36
8,COC1=CC(=O)C[C@@H](C)[C@]12Oc1c(Cl)c(OC)cc(OC)c1C2=O [Prestw-226],-1.72 ± 0.52
9,"CCCCC1=NC2(CCCC2)C(=O)N1Cc1ccc(-c2ccccc2-c2nn[nH]n2)cc1 [IRBESARTAN, angiotensin 2 receptor antagonist]",-0.835 ± 0.67
10,OCC(O)CN1CCN(c2ccccc2)CC1 (centres undefined) [Prestw-245],0.615 ± 0.73
11,CN(C)CCC(c1ccc(Cl)cc1)c1ccccn1 (centres undefined) [Prestw-117],-0.639 ± 0.45
12,COc1cc(N)c(Cl)cc1C(=O)NC1CCN(CCCOc2ccc(F)cc2)CC1OC (centres undefined) [Prestw-430],1.37 ± 0.48
13,CCCC(CCC)C(=O)O [Prestw-1482],-0.109 ± 1.2
14,O=C(O)CNC(=O)C(CS)Cc1ccccc1 (centres undefined) [Prestw-633],0.164 ± 0.47
15,Cc1onc(-c2ccccc2)c1C(=O)N[C@@H]1C(=O)N2[C@@H]1SC(C)(C)[C@@H]2C(=O)O [Prestw-1475],-1.18 ± 0.2
16,"CO/N=C1\CN(c2nc3c(cc2F)c(=O)c(C(=O)O)cn3C2CC2)CC1CN (centres undefined) [GEMIFLOXACIN MESYLATE, antibacterial]",-0.0854 ± 0.055
17,Clc1ccccc1C(c1ccccc1)(c1ccccc1)n1ccnc1 [Prestw-267],-0.874 ± 0.34
18,NC(=O)NO,0.29 ± 0.83
19,Clc1ccc(COC(Cn2ccnc2)c2ccc(Cl)cc2Cl)cc1 (centres undefined) [Prestw-304],-0.894 ± 0.33
20,C=CC[N@@+]12CC[C@@]34c5ccccc5N5/C=C6/[C@H]7C[C@H]8[C@@]9(CC[N@@+]8(CC=C)C/C7=C/CO)c7ccccc7N(/C=C(/[C@@H](C[C@@H]31)/C(=C\CO)C2)[C@H]54)[C@@H]69 [Prestw-1036],-1.69 ± 0.56
21,CCOC(=O)c1ccc(OC(=O)CCCCCN=C(N)N)cc1 [Prestw-1008],-0.517 ± 0.18
22,CCCC(C(=O)OCCN(CC)CC)(c1ccccc1)c1ccccc1 [Prestw-778],1.22 ± 0.93
23,CN1CCC[C@H]1c1cccnc1 [Prototype nicotinic acetylcholine receptor agonist],0.321 ± 0.93
24,"O=P(O)(O)C(O)(Cc1cccnc1)P(=O)(O)O [RISEDRONATE SODIUM HYDRATE, calcium regulator]",0.578 ± 1.2

# Grouped by structure, the entries above with an aryl thioether with sulfur outside any ring
row,SMILES,pThr231Tau/total Tau ratio Z-score
17,CCCCCCCCNC(C)C(O)c1ccc(SC(C)C)cc1 (centres undefined) [Prestw-421],-2.94 ± 0.1
24,Cc1nnc(SCC2=C(C(=O)O)N3C(=O)[C@@H](NC(=O)Cn4cnnn4)[C@H]3SC2)s1 [Prestw-736],0.108 ± 0.009

# Reference: the supplement of paper PMC6414424
